From the supplement of paper PMC6078165
Values are relative to the signal before dosing, not to a vehicle control; the signal also falls without drug.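 Fibroblast labels name human fibroblasts: mostly primary ones from tissues such as uterus (C12385, HUF), lung (H6013), bone (Hs27A), adrenal (HADF) and skin (WS1), plus mammary HMF and breast cancer-associated Hs343T. The cancer cells are basal-like or mesenchymal-like triple-negative breast cancer lines. The paper calls a changed response a hit when it shifts by more than 3x the replicate standard deviation. The tissue of the other fibroblasts is not given here.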

Tested on: BT20
Assay: relative JC-1 red fluorescence (viability) vs pre-drug, coculture with fibroblast (fraction); higher = more viable cancer cells
Procedure: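 JC-1 labelled TNBC cells cocultured 1:1 (1,500 cells each) with CellTrace Violet stained primary or stromal fibroblasts in 384-well plates in FluoroBrite medium, treated with one of 42 anticancer drugs at 0.1, 1, 10 or 100 uM. JC-1 red fluorescence (mitochondrial integrity in cancer cells only) was read by plate reader every 8 h for 72 h. Values are normalised to each well's pre-drug value. The stock of one drug was tenfold lower, so its dose labels may be too high.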

C[C@]12CC[C@@H]3c4ccc(O)cc4C[C@@H](CCCCCCCCC[S+]([O-])CCCC(F)(F)C(F)(F)F)[C@H]3[C@@H]1CC[C@@H]2O (stereo partly specified) [Fulvestrant]
relative JC-1 red fluorescence
Conditions	8 h	16 h	24 h	32 h	40 h	48 h	56 h	64 h	72 h
0.1 µM, coculture fibroblast: C12385	0.9001	0.833	0.7715	0.713	0.661	0.627	0.607	0.584	0.569
0.1 µM, coculture fibroblast: H6013	0.976	0.859	0.784	0.75	0.687	0.6636	0.6416	0.6125	0.5857
0.1 µM, coculture fibroblast: H6019	0.852	0.8	0.767	0.712	0.674	0.659	0.627	0.606	0.593
0.1 µM, coculture fibroblast: H6076	0.984	0.889	0.8336	0.807	0.792	0.773	0.775	0.765	0.758
0.1 µM, coculture fibroblast: H6231	0.817	0.91	0.804	0.739	0.691	0.641	0.61	0.584	0.554
0.1 µM, coculture fibroblast: HADF	0.822	0.9313	0.849	0.832	0.791	0.74	0.708	0.68	0.644
0.1 µM, coculture fibroblast: HCFa	0.959	0.88	0.841	0.8	0.759	0.723	0.697	0.677	0.631
0.1 µM, coculture fibroblast: HCPF	0.748	0.922	0.836	0.79	0.751	0.697	0.6501	0.626	0.579
0.1 µM, coculture fibroblast: HHSteC	0.941	0.8505	0.824	0.749	0.688	0.653	0.614	0.586	0.544
0.1 µM, coculture fibroblast: HMF	0.886	0.882	0.7706	0.711	0.67	0.629	0.599	0.57	0.544
0.1 µM, coculture fibroblast: HPFa	0.9453	0.863	0.859	0.77	0.729	0.67	0.638	0.597	0.536
0.1 µM, coculture fibroblast: HUF	0.9104	0.8328	0.784	0.696	0.642	0.603	0.573	0.55	0.534
0.1 µM, coculture fibroblast: Hs5	0.737	0.9146	0.824	0.7717	0.7273	0.6877	0.651	0.607	0.563
0.1 µM, coculture fibroblast: Hs27A	0.8441	0.835	0.849	0.858	0.909	0.903	0.917	0.978	0.934
0.1 µM, coculture fibroblast: Hs343T	0.835	0.88	0.775	0.7197	0.654	0.615	0.562	0.532	0.503
0.1 µM, coculture fibroblast: WS1	0.8743	0.8015	0.7361	0.661	0.602	0.573	0.537	0.516	0.503
1 µM, coculture fibroblast: C12385	0.851	0.79	0.7667	0.71	0.664	0.648	0.631	0.613	0.594
1 µM, coculture fibroblast: H6013	0.924	0.904	0.893	0.863	0.853	0.849	0.853	0.838	0.819
1 µM, coculture fibroblast: H6019	0.841	0.782	0.789	0.743	0.704	0.692	0.657	0.635	0.612
1 µM, coculture fibroblast: H6076	0.909	0.886	0.843	0.825	0.8233	0.791	0.801	0.8	0.791
1 µM, coculture fibroblast: H6231	0.968	0.8643	0.799	0.745	0.711	0.67	0.658	0.63	0.613
1 µM, coculture fibroblast: HADF	0.95679	0.906	0.85	0.817	0.787	0.751	0.732	0.712	0.678
1 µM, coculture fibroblast: HCFa	0.944	0.912	0.886	0.856	0.837	0.826	0.809	0.794	0.76
1 µM, coculture fibroblast: HCPF	0.884	0.917	0.839	0.792	0.754	0.712	0.693	0.66	0.631
1 µM, coculture fibroblast: HHSteC	0.9029	0.858	0.8337	0.7669	0.7116	0.6913	0.6622	0.6461	0.61399
1 µM, coculture fibroblast: HMF	0.9634	0.86	0.774	0.7298	0.6954	0.645	0.621	0.607	0.577
1 µM, coculture fibroblast: HPFa	0.8919	0.878	0.928	0.872	0.856	0.814	0.782	0.737	0.681
1 µM, coculture fibroblast: HUF	0.9274	0.835	0.799	0.723	0.677	0.645	0.63	0.611	0.597
1 µM, coculture fibroblast: Hs5	0.894	0.851	0.8184	0.7807	0.769	0.749	0.734	0.724	0.69
1 µM, coculture fibroblast: Hs27A	0.832	0.838	0.938	0.941	0.915	0.899	0.884	0.858	0.812
1 µM, coculture fibroblast: Hs343T	0.85	0.8937	0.823	0.7659	0.7312	0.6908	0.6632	0.643	0.618
1 µM, coculture fibroblast: WS1	0.851	0.7724	0.745	0.677	0.62	0.598	0.572	0.549	0.536
10 µM, coculture fibroblast: C12385	0.942	0.894	0.842	0.789	0.746	0.73	0.7	0.689	0.679
10 µM, coculture fibroblast: H6013	0.807	0.78	0.9267	0.9246	0.895	0.9005	0.8984	0.8853	0.89
10 µM, coculture fibroblast: H6019	0.9	0.891	0.87	0.829	0.808	0.82	0.801	0.797	0.791
10 µM, coculture fibroblast: H6076	0.886	0.857	0.894	0.875	0.837	0.8209	0.7967	0.787	0.77
10 µM, coculture fibroblast: H6231	0.777	0.858	0.85	0.9131	0.871	0.8197	0.821	0.817	0.805
10 µM, coculture fibroblast: HADF	0.788	0.832	0.909	0.878	0.828	0.906	0.856	0.839	0.871
10 µM, coculture fibroblast: HCFa	0.779	0.901	0.873	0.818	0.92	0.897	0.871	0.862	0.819
10 µM, coculture fibroblast: HCPF	0.749	0.902	0.922	0.8687	0.8291	0.7959	0.777	0.7899	0.765
10 µM, coculture fibroblast: HHSteC	0.912	0.924	0.909	0.836	0.943	0.94	0.907	0.915	0.8926
10 µM, coculture fibroblast: HMF	0.902	0.849	0.89	0.846	0.812	0.767	0.738	0.702	0.6678
10 µM, coculture fibroblast: HPFa	0.915	0.948	0.918	0.87	0.847	0.82	0.7954	0.7654	0.7118
10 µM, coculture fibroblast: HUF	0.938	0.877	0.849	0.795	0.771	0.746	0.729	0.722	0.703
10 µM, coculture fibroblast: Hs5	0.734	0.866	0.8896	0.8281	0.7827	0.756	0.732	0.706	0.696
10 µM, coculture fibroblast: Hs27A	0.823	0.718	0.9754	0.868	0.847	0.906	0.972	0.958	0.923
10 µM, coculture fibroblast: Hs343T	0.78	0.872	0.888	0.827	0.791	0.745	0.706	0.703	0.688
10 µM, coculture fibroblast: WS1	0.916	0.874	0.819	0.76	0.711	0.699	0.68	0.671	0.678
100 µM, coculture fibroblast: C12385	0.9874	0.987	0.978	0.9573	0.938	0.94	0.941	0.9452	0.94
100 µM, coculture fibroblast: H6013	0.93	0.971	0.931	0.943	0.914	0.914	0.913	0.909	0.888
100 µM, coculture fibroblast: H6019	0.9391	0.8931	0.8928	0.8443	0.817	0.812	0.797	0.784	0.779
100 µM, coculture fibroblast: H6076	0.888	0.9685	0.895	0.871	0.843	0.828	0.812	0.81	0.812
100 µM, coculture fibroblast: H6231	0.832	0.765	0.777	0.866	0.769	0.971	0.9955	0.9813	0.821
100 µM, coculture fibroblast: HADF	0.839	0.891	0.842	0.912	0.927	0.831	0.915	0.887	0.899
100 µM, coculture fibroblast: HCFa	0.859	0.84	0.867	0.943	0.867	0.909	0.742	0.802	0.825
100 µM, coculture fibroblast: HCPF	0.726	0.779	0.725	0.918	0.88	0.851	0.755	0.867	0.894
100 µM, coculture fibroblast: HHSteC	0.972	0.879	0.834	0.883	0.89	0.818	0.861	0.811	0.803
100 µM, coculture fibroblast: HMF	0.86	0.719	0.942	0.888	0.872	0.847	0.848	0.832	0.826
100 µM, coculture fibroblast: HPFa	0.841	0.847	0.798	0.874	0.904	0.717	0.93	0.871	0.935
100 µM, coculture fibroblast: HUF	0.9836	0.925	0.91	0.884	0.885	0.869	0.866	0.864	0.864
100 µM, coculture fibroblast: Hs5	0.874	0.923	0.899	0.871	0.8584	0.843	0.855	0.851	0.867
100 µM, coculture fibroblast: Hs27A	0.721	0.815	0.901	0.753	0.854	0.845	0.732	0.901	0.764
100 µM, coculture fibroblast: Hs343T	0.813	0.861	0.887	0.841	0.806	0.773	0.752	0.728	0.753
100 µM, coculture fibroblast: WS1	0.923	0.954	0.938	0.91	0.892	0.877	0.856	0.844	0.829
